These are yes or no findings as the source states them, for the method shown. A result given as binding can be weak or reduced; the word gives no strength. For some of these results: Where a sequence is shown, tags or fusion partners need not be part of it.
What was measured:
Test in all cases: cryo-EM structure
[1] = target: T1, CtaE, subunit of complex IV (Corynebacterium glutamicum) (UniProt Q9AEL8)
T1 sequence: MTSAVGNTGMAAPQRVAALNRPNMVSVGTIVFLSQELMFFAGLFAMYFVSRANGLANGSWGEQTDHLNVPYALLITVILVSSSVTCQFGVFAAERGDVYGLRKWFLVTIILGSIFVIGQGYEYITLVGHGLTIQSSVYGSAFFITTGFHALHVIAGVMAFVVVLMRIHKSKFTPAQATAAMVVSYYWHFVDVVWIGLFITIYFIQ

[2] = target: T2, CtaF, subunit of complex IV (Corynebacterium glutamicum) (UniProt Q8NNK3)
T2 sequence: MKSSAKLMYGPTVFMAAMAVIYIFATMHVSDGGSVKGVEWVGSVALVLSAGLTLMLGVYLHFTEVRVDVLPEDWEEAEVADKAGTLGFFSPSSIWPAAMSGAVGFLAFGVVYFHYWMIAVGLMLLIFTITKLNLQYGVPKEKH

[3] = target: T3, QcrB, cytochrome b subunit of complex III (Corynebacterium glutamicum) (UniProt Q79VE9)
T3 sequence: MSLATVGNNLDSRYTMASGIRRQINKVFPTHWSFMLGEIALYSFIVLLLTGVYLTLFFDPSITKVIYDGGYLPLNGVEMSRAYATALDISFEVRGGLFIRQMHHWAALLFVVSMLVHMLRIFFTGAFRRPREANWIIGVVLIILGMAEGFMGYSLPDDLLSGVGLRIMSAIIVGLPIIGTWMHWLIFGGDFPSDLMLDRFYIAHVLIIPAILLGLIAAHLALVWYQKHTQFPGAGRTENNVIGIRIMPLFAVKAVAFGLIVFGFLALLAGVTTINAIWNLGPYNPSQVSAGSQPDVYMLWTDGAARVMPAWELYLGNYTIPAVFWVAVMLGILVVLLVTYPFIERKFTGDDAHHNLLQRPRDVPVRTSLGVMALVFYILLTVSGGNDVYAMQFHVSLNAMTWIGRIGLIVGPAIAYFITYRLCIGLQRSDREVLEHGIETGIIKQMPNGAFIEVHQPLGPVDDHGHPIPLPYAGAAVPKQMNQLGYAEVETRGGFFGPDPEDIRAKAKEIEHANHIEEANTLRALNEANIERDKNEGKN

[4] = target: T4, CtaD with Strep-tag, subunit I homologue of complex IV (Corynebacterium glutamicum) (UniProt Q79VD7)
T4 sequence: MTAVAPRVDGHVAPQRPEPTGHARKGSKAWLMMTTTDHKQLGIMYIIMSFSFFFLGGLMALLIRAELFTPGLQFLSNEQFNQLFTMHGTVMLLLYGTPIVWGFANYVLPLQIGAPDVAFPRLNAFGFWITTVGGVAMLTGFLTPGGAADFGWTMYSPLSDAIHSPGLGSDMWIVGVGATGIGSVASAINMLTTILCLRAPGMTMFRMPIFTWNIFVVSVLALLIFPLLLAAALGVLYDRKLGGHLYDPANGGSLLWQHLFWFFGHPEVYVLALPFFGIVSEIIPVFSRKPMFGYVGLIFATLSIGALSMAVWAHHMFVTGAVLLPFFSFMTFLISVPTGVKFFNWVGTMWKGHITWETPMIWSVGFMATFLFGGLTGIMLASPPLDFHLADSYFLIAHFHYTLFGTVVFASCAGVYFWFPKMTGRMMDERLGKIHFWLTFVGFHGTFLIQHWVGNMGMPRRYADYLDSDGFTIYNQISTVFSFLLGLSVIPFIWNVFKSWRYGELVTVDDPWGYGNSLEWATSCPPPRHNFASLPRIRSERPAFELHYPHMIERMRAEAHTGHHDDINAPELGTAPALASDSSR

Row | Substance | binding [1] | binding [2] | binding [3] | binding [4]
1 | AscC (Corynebacterium glutamicum) | binds | binds | binds | 
2 | AscB (from UniProt Q8NSJ8) |  |  |  | binds

— article doi:10.1101/2021.06.16.448340 (bioRxiv, 2021)
